Experimental data: article PMC5095055
No constants are given. Whether binding was seen depends on the method and setting. Binding seen in cells or lysates may run through a third protein. Some entries that bind do so weakly or less than the wild type.

Chains of the proteins cited; added tags and fusions are not shown. Residues count along the entry.
UniProt P21860, residues 20-1342: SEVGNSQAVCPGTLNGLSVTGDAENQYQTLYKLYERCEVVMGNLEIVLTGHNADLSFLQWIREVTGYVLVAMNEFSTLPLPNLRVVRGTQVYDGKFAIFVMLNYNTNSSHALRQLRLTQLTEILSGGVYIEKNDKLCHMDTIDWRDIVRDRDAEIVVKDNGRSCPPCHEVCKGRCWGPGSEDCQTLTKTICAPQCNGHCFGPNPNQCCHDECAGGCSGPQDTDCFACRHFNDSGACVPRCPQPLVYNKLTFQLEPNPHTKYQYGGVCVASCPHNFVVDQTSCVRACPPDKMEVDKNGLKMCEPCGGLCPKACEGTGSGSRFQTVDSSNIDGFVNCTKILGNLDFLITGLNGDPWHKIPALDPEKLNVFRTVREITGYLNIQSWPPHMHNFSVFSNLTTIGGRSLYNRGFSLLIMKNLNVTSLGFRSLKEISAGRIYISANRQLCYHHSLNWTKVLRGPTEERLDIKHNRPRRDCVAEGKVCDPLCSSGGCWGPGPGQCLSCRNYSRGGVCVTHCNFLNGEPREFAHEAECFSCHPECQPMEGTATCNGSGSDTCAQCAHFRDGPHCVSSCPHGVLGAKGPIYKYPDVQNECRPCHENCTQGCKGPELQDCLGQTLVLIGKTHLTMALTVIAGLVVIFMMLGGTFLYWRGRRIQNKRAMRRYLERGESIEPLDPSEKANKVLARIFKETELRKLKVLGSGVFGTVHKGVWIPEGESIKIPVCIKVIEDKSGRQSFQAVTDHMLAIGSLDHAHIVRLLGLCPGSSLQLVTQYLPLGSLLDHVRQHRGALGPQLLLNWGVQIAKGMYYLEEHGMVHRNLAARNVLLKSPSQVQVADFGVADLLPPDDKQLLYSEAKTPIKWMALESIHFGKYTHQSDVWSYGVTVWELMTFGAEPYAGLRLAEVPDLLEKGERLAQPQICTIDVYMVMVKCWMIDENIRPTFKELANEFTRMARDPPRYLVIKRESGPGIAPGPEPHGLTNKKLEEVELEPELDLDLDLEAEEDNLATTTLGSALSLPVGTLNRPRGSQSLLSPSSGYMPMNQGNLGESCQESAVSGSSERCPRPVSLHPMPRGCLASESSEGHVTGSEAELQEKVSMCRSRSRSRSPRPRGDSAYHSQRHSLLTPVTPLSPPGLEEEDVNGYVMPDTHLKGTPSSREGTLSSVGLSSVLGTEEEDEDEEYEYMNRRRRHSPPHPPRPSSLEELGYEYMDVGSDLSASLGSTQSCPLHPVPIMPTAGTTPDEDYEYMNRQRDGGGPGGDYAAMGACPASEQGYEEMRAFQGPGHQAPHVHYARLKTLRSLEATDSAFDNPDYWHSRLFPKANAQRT
UniProt P46934: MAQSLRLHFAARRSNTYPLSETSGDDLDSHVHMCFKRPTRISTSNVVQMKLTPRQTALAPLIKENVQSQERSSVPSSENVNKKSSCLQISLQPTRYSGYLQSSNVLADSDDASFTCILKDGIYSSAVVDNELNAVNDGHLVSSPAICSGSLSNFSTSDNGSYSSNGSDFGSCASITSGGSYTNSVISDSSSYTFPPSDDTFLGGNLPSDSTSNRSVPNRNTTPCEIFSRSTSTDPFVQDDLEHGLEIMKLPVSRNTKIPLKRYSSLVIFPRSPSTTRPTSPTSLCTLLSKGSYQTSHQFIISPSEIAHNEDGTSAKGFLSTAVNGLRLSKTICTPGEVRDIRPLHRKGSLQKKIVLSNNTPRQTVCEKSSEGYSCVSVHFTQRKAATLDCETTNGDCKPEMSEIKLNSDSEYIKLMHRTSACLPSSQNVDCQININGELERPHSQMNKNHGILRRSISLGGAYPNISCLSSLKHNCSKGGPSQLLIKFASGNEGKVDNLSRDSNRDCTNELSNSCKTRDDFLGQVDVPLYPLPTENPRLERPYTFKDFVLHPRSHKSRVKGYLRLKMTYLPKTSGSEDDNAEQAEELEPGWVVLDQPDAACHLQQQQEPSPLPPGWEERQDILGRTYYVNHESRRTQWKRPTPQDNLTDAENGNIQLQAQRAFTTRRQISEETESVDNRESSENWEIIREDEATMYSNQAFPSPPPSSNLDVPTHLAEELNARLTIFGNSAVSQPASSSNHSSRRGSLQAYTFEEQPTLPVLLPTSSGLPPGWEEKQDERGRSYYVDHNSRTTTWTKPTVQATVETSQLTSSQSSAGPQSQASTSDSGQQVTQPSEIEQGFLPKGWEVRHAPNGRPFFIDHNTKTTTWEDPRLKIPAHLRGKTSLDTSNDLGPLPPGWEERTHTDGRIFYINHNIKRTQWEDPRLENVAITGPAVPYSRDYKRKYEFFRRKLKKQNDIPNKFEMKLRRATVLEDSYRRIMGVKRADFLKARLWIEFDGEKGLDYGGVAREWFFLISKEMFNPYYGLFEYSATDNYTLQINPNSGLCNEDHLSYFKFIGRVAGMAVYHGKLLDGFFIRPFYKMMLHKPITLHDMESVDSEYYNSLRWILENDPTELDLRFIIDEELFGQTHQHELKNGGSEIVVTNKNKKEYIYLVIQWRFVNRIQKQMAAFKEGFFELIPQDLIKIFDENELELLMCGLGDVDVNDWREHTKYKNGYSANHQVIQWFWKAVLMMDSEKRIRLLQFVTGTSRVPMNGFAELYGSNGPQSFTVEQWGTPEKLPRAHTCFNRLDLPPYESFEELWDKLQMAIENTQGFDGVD

Assays:
[1] = target: HER3/ErbB3 receptor (human (endogenous in BxPC3)) (UniProt P21860); assay: co-IP; serum-starved BxPC3 cells in medium alone (basal, control); 2 mg lysate in CHAPS buffer, HER3 immunoprecipitated with anti-HER3 antibody 2F12 (C-terminal tail), 4°C, protein A/G agarose or magnetic beads; western blot for ITCH, HER3, NEDD4
[2] = target: HER3/ErbB3 receptor (human (endogenous in BxPC3)) (UniProt P21860); assay: condition: only after incubation of the cells with 9F7-F11 or with NRG-1β; co-IP; serum-starved BxPC3 cells incubated with 50 μg/mL 9F7-F11 for 30 min or 100 ng/mL NRG-1β for 30 min or 1 hr; 2 mg lysate in CHAPS buffer, HER3 immunoprecipitated with anti-HER3 antibody 2F12 (C-terminal tail), 4°C; western blot for ITCH, HER3, NEDD4

binding [1]: binds | binding [2]: no binding
Substance: neural precursor cell expressed, developmentally downregulated 4 (NEDD4) (from UniProt P46934 1-1319) (enzyme)
